Measurements taken from PubChem BioAssay AID1919015 (Molecular Pharmacology Branch, DTP, NCI, 2023).
“And” between values parts separate entries of the source, which are not always exact repeats. Equal values may be shown once. This continues a long series; more values of the same kind are listed elsewhere.

Tested on: OVCAR-5 complex spheroids with HUVEC/MSC, viability, % test/control
Assay: Anticancer human tumor OVCAR-5 cell line growth inhibition [AhR];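 further: spheroids exposed to compounds for 7 days; 100% = DMSO vehicle control wells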
Details: active compounds read low; active means viability on the fitted dose curve at most 10% of control; inactive means the rest
Source text: Multicellular complex tumor spheroid response to aryl hydrocarbon receptor antagonists in combination with a variety of drugs and investigational agents in selected tumor cell lines
The current study was undertaken to assess response to aryl hydrocarbon receptor antagonists in combination with standard-of-care drugs and investigational agents in solid tumor complex spheroid models. Complex spheroids include a stromal component modeled by human endothelial cells (HUVEC) and fibroblasts modeled by human mesenchymal stem cells (MSCs). The concentration ranges selected for each drug and investigational agent were based upon clinically achievable concentrations if the clinical Cmax of the agent was known.
Compounds. The drugs and investigational agents: BAY 2416964 (NSC825713), GNF351 (NSC835774), CH-223191 (NSC835775), CPI-455 (NSC825282), aza-TdCyd (NSC777586), decitabine (NSC127716), belinostat (NSC758774), entinostat (NSC756642), pevonedistat (NSC761192), tazemetostat (NSC777109), talazoparib (NSC765396), olaparib (NSC753686), selinexor (NSC780203), nedisertib (M3814, NSC802822), bortezomib (NSC756655), venetoclax (NSC766270), doxorubicin (NSC123127), elimusertib (BAY189344, NSC800525), ceralasertib (AZD6738, NSC777638), TAK-243 (NSC785004), alisertib (NSC759677), etoposide (NSC141540), topotecan (NSC609699), eribulin (NSC707389), gemcitabine (NSC613327), carboplatin (NSC241240), cisplatin (NSC119875), and SN-38 (NSC673596) were obtained from the National Cancer Institute (NCI) Developmental Therapeutics Program Chemical Repository (32). The FDA-approved anticancer drug set is available from the Developmental Therapeutics Program at https://dtp.cancer.gov/organization/dscb/obtaining/available plates.htm. […] The stock solutions were prepared in dimethyl sulfoxide (DMSO, Sigma-Aldrich, St. Louis, MO, cat. D2650), except for the platinum compounds which were prepared in saline (Quality Biological, Gaithersburg, MD, cat. 114-055-101), at 800-fold the tested concentration and stored at -70 degrees C prior to their use. All drugs and investigational agents were tested over a range starting from a high concentration at or near the clinical Cmax and decreasing in half-log increments. If the clinical Cmax for an agent had not been determined, the highest concentration tested was 10 microM (Table 1).
Cell Culture. All cells were maintained in an incubator at 37 degrees C and 5% CO2 with 95% humidity. The PDC lines were cultured according to standard operating procedures established by the NCI PDMR (https://pdmr.cancer.gov). Briefly, all PDCs were thawed and cultured in Matrigel-coated flasks prepared with a working solution of 1X Ham's F-12 nutrient mix, without supplementation (Invitrogen, Waltham, MA, cat. 11765054), 100 U/mL penicillin-streptomycin (Invitrogen, cat. 15140122), and 2.5% Matrigel (Corning Inc., Corning, NY, cat. 354248) for the first three passages. All PDCs were cultured in complete DMEM/F-12 media containing advanced DMEM/F-12 (Invitrogen, cat. 12634028), 4.9% defined fetal bovine serum, heat inactivated (HyClone Laboratories Inc., Logan, UT, cat. SH30070.03HI), 389 ng/mL hydrocortisone (Sigma-Aldrich, cat. H4001), 9.7 ng/mL human EGF recombinant protein (Invitrogen, cat. PHG0313), 23.4 microg/mL adenine (Sigma-Aldrich, cat. A2786), 97.3 U/mL penicillin-streptomycin (Invitrogen, cat. 15140122), 1.9 mM L-glutamine (Invitrogen, cat. 25030081), and 9.7 microM Y-27632 dihydrochloride (Tocris Bioscience, Bristol, United Kingdom, cat. 1254). The PDCs were cultured in complete DMEM/F12 media without 10 microM Y-27632 dihydrochloride for at least two passages prior to the screen. The established cell lines NCI-H1341 and […] were cultured in DMEM/F-12, HEPES (Invitrogen, cat. 11330032), 5% defined fetal bovine serum (HyClone Laboratories Inc., cat. SH30070.03), ITS premix universal culture supplement [insulin (5 microg/mL), transferrin (5 microg/mL), and selenious acid (5 ng/mL)] […]

Measured: viability, T/C

Cc1ccccc1N=Nc1ccc(NC(=O)c2ccnn2C)c(C)c1
inactive: compound 0.1 µM 100% (2×) and 98.6% and 99.5% | compound 0.316 µM 107% (2×) and 103% | compound 1 µM 101% | compound 3.16 µM 104% and 107% | compound 10 µM 111%

Cc1cncc(-c2nc(NCCc3c[nH]c4ccccc34)c3ncn(C(C)C)c3n2)c1
inactive: compound 0.1 µM 102% and 105% | compound 0.316 µM 106% and 102% and 99.6% | compound 1 µM 97.2% [middle of 5 runs] | compound 3.16 µM 85.6% [middle of 5 runs] | compound 10 µM 24.1% and 14.2%

CC(CO)NC(=O)c1cc(-c2ccc(Cl)cc2)nn(-c2cnn(C)c2)c1=O (stereo not given)
inactive: compound 0.1 µM 104% | compound 0.316 µM 111% | compound 1 µM 116% | compound 3.16 µM 111% | compound 10 µM 100% [middle of 4 runs]
